For one molecule, binding results are on record in publication PMC7401804.

Amino acid sequences for entries named in this document (tags omitted).
UniProt Q8VI36: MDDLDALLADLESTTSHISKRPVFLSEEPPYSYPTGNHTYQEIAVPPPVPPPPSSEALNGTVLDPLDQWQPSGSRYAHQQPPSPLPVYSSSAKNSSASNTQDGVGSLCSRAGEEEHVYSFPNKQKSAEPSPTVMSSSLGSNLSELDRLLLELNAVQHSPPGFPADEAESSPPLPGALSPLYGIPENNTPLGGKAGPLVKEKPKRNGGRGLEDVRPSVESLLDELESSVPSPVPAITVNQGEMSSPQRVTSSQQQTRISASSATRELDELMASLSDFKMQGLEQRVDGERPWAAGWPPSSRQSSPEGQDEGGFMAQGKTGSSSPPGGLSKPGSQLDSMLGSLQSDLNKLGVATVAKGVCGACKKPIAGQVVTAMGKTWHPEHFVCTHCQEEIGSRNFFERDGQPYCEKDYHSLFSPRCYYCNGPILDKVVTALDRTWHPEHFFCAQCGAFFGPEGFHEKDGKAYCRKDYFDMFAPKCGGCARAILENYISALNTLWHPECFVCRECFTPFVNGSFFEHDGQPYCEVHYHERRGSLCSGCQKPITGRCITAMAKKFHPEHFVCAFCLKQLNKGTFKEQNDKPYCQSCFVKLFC

Experiment [1] concerns the target paxillin (mouse (endogenous in TA muscle)) (UniProt Q8VI36). Description: co-IP; endogenous paxillin immunoprecipitated with an anti-paxillin antibody from solubilized mouse TA skeletal muscle, Dynabeads Protein G; HDAC6 detected by Western blot.
Experiment [2] has the same target. Description: proximity ligation; Duolink PLA (anti-Mouse MINUS, anti-Rabbit PLUS probes) with antibodies against HDAC6 and paxillin in isolated fibers of mouse TA muscle, counterstained with α-BTX–A488.

Results are given in words; binding and its absence hold for the method and conditions named. Binding seen in cells or lysates may run through a third protein. Some binding calls cover weakened binding; strength is not graded here.

B1: HDAC6 (enzyme, UniProt Q9Z2V5 1-1149)
chain: MTSTGQDSSTRQRKSRHNPQSPLQESSATLKRGGKKCAVPHSSPNLAEVKKKGKMKKLSQPAEEDLVVGLQGLDLNPETRVPVGTGLVFDEQLNDFHCLWDDSFPESPERLHAIREQLILEGLLGRCVSFQARFAEKEELMLVHSLEYIDLMETTQYMNEGELRVLAETYDSVYLHPNSYSCACLATGSVLRLVDALMGAEIRNGMAVIRPPGHHAQHNLMDGYCMFNHLAVAARYAQKKHRIQRVLIVDWDVHHGQGTQFIFDQDPSVLYFSIHRYEHGRFWPHLKASNWSTIGFGQGQGYTINVPWNQTGMRDADYIAAFLHILLPVASEFQPQLVLVAAGFDALHGDPKGEMAATPAGFAHLTHLLMGLAGGKLILSLEGGYNLRALAKGVSASLHTLLGDPCPMLESCVVPCASAQTSIYCTLEALEPFWEVLERSVETQEEDEVEEAVLEEEEEEGGWEATALPMDTWPLLQNRTGLVYDEKMMSHCNLWDNHHPETPQRILRIMCHLEEVGLAARCLILPARPALDSELLTCHSAEYVEHLRTTEKMKTRDLHREGANFDSIYICPSTFACAKLATGAACRLVEAVLSGEVLNGIAVVRPPGHHAEPNAACGFCFFNSVAVAARHAQIIAGRALRILIVDWDVHHGNGTQHIFEDDPSVLYVSLHRYDRGTFFPMGDEGASSQVGRDAGIGFTVNVPWNGPRMGDADYLAAWHRLVLPIAYEFNPELVLISAGFDAAQGDPLGGCQVTPEGYAHLTHLLMGLAGGRIILILEGGYNLASISESMAACTHSLLGDPPPQLTLLRPPQSGALVSISEVIQVHRKYWRSLRLMKMEDKEECSSSRLVIKKLPPTASPVSAKEMTTPKGKVPEESVRKTIAALPGKESTLGQAKSKMAKAVLAQGQSSEQAAKGTTLDLATSKETVGGATTDLWASAAAPENFPNQTTSVEALGETEPTPPASHTNKQTTGASPLQGVTAQQSLQLGVLSTLELSREAEEAHDSEEGLLGEAAGGQDMNSLMLTQGFGDFNTQDVFYAVTPLSWCPHLMAVCPIPAAGLDVSQPCKTCGTVQENWVCLTCYQVYCSRYVNAHMVCHHEASEHPLVLSCVDLSTWCYVCQAYVHHEDLQDVKNAAHQNKFGEDMPHSH
B1: the binding result in experiment [1] and in experiment [2] was “binds” in each case.
